No constants are given. Whether binding was seen depends on the method and setting. Binding seen in cells or lysates may run through a third protein. Some entries that bind do so weakly or less than the wild type. One block for each substance: values may come before it.
Legend:
Assay in all cases: co-IP; each 35S-labelled in vitro translated Hermes/Rbpms protein mixed with its myc-tagged counterpart and incubated; immunoprecipitation with anti-Myc antibody; western blotting and autoradiography (PhosphorImager); no nanos RNA present
[1] = molecular target: Hermes/Rbpms deletion A (a.a. 101-121 deleted), in vitro translated (Xenopus) (UniProt Q9YGP5)
[2] = molecular target: Hermes/Rbpms deletion B (a.a. 122-161 deleted), in vitro translated (Xenopus) (UniProt Q9YGP5)
[3] = molecular target: Hermes/Rbpms deletion C (a.a. 164-198 deleted; missing the last 34 amino acids), in vitro translated (Xenopus) (UniProt Q9YGP5)
[4] = molecular target: Hermes/Rbpms, wild type, in vitro translated (myc-tagged copy and untagged copy) (Xenopus) (UniProt Q9YGP5)

Sequences of proteins named here, by UniProt entry; tags and fusion partners are left off. A change or cut given only in a name is not applied to a line headed by its entry. A line that says so, or that is headed by a name, gives the form on record, which may keep a tag or linker.
UniProt Q9YGP5: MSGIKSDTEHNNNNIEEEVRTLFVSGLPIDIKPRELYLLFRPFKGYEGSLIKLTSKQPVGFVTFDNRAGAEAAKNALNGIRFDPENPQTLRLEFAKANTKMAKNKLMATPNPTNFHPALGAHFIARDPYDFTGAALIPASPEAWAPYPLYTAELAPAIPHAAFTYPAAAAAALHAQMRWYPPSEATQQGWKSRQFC
Hermes/Rbpms deletion A (a.a. 101-121 deleted), in vitro translated (Q9YGP5, form named): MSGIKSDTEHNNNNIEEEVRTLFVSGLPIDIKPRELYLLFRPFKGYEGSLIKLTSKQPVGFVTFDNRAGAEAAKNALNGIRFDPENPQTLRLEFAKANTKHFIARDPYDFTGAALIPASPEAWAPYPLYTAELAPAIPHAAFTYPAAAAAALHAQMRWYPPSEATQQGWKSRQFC
Hermes/Rbpms deletion B (a.a. 122-161 deleted), in vitro translated (Q9YGP5, form named): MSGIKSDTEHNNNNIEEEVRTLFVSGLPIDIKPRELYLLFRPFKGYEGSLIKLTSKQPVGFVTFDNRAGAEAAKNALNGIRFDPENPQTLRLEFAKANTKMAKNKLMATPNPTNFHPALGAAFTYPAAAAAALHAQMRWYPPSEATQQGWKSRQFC

binding [1]: binds
Substance: Hermes/Rbpms deletion A (a.a. 101-121 deleted), in vitro translated (from UniProt Q9YGP5 1-196)

binding [2]: binds
Substance: Hermes/Rbpms deletion B (a.a. 122-161 deleted), in vitro translated (from UniProt Q9YGP5 1-196)

binding [3]: no binding
Substance: Hermes/Rbpms deletion C (a.a. 164-198 deleted; missing the last 34 amino acids), in vitro translated (from UniProt Q9YGP5 1-163) (domain or fragment)

binding [4]: binds
Substance: Hermes/Rbpms, wild type, in vitro translated (myc-tagged copy and untagged copy) (from UniProt Q9YGP5 1-196)

Source: article PMC4798249
